Experiment: Para-hydrogen hydrogenation with homogeneous rhodium catalyst, NMR enhancement effect (Example 2)
Conditions: para-hydrogen and homogeneous rhodium catalyst, about 20 seconds

CCOC(=O)C#CC(=O)OCC [EtOOC—C≡C—COOEt]
^13C enhancement (cis C═C product): ~500

C#Cc1ccccc1 [Ph—C≡CH]
^1H enhancement: about 200
